Structures are written as SMILES. Only a part is listed here, and it is no random draw. Activity calls are given as the source filed them.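 Rule for the calls: active = blocking of liver enzyme CYP2C9 beyond about 50% at 5 µM (limit read from the data); inactive = the rest.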

Chains of the proteins cited; added tags and fusions are not shown.
UniProt P11712, whole entry, looked up: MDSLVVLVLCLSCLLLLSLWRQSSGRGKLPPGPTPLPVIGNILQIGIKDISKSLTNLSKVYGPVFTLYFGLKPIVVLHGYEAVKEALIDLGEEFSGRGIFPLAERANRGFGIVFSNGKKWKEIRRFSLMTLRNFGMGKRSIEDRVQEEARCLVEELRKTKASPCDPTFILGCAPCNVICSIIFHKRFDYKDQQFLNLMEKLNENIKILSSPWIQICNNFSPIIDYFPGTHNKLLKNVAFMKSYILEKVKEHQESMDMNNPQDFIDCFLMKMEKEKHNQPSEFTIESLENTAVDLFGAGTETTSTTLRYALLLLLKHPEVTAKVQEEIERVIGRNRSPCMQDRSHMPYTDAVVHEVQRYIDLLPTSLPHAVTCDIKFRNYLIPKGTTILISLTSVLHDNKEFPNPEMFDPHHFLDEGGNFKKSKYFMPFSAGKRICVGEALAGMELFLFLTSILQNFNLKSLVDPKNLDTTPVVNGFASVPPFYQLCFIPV

This test deals with Cytochrome P450 2C9 (Homo sapiens) (UniProt P11712). The test can be described thus: blockers of cytochrome P450 2C9 activity – biochemical, luminescence, ADME assay, primary screen (AID 777). Conditions: CYP2C9 Supersomes, luciferin-H conversion, at 5 µM, hits give high values.
`COC(=O)C1=C(C(=O)OC)C(c2cc(Cl)ccc2O)c2sc(=O)[nH]c2S1` (stereo unspecified): the inhibition (usually the relative decrease from the control value, in per cent) is active: 81.3%.

The record behind these values is PubChem BioAssay AID777 (Sanford-Burnham Center for Chemical Genomics, 2007).
